Measured values reported in article PMC4639748.
These are yes or no findings as the source states them, for the method shown. For some assays here: Binding seen in cells or lysates may run through a third protein. Some entries that bind do so weakly or less than the wild type. For some assays here: Sequences can lack the tags named with a protein. Values belong to the molecule of their own block, whether it stands above or below them.

By UniProt entry, the sequences of proteins in these tests, tags left out. Where a name states a change or a piece, a line headed by the entry shows the natural chain unless it says otherwise.
UniProt P50636: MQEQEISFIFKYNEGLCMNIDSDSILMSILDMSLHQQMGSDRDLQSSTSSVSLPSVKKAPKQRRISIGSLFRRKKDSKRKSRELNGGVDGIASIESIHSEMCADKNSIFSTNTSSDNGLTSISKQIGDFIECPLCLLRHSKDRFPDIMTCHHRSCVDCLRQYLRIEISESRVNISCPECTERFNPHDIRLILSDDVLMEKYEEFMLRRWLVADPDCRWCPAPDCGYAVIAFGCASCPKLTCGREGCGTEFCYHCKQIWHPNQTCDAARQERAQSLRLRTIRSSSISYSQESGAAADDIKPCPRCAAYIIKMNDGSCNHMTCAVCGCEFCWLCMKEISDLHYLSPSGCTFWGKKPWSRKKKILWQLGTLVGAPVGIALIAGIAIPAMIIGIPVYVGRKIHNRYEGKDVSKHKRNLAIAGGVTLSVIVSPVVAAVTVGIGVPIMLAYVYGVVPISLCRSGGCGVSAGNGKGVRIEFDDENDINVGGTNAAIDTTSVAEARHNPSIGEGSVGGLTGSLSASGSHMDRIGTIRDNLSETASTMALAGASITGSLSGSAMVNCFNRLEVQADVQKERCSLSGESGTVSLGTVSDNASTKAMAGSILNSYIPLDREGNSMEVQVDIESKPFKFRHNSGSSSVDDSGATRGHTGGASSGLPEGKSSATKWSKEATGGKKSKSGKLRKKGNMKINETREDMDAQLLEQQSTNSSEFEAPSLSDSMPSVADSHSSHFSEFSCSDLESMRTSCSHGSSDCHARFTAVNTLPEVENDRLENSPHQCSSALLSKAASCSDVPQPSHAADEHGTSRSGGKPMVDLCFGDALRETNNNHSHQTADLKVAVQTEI
UniProt Q62696: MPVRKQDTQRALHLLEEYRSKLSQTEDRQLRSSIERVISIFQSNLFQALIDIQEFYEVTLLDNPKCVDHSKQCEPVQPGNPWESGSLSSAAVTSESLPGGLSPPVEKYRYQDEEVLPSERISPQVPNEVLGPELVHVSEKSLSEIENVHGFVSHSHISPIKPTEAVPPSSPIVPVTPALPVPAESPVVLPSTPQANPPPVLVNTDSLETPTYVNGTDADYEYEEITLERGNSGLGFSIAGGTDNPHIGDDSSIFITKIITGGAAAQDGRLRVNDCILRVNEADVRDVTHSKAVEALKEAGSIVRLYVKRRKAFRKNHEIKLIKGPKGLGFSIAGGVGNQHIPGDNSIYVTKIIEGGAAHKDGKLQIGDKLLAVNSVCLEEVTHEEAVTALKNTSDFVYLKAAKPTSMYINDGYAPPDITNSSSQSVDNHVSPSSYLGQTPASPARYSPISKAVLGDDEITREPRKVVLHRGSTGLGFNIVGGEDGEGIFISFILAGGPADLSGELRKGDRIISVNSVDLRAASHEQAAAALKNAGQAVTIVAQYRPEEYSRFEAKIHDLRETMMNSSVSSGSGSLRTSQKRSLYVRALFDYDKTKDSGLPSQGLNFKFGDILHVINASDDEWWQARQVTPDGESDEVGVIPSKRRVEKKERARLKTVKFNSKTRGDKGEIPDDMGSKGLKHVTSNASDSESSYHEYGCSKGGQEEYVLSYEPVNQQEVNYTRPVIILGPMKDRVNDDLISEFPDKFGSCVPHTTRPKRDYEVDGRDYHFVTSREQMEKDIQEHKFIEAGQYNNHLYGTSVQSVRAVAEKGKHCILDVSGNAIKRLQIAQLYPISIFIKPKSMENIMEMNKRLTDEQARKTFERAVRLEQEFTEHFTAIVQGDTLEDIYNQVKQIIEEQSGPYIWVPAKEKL

How the values were obtained:
[1] = biological target: T1, GST-Dorfin (aa 834–840; WT) (mouse) (UniProt P50636); test: pull-down; GST-Dorfin (aa 834–840) used to bring down proteins expressed in HEK293T cells, followed by immunoblotting; only the target purified
T1 sequence: VAVQTEI

[2] = biological target: T2, Dorfin (aa 834–840; wild type) in pBHA (mouse) (UniProt P50636); test: two-hybrid; Dorfin aa 834–840 (WT or I840A) in pBHA (bait vector), PDZ domains in pGAD10 (prey vector); β-galactosidase and HIS3 activity
T2 sequence: VAVQTEI

binding [1]: binds
Molecule: EGFP-SAP97 (full length) (from UniProt Q62696 1-911)

binding [2]: no binding
B1: PDZ domain of Shank1 in pGAD10 (domain or fragment, UniProt Q9WV48 663-757)
chain: TVLLQKKDSEGFGFVLRGAKAQTPIEEFTPTPAFPALQYLESVDEGGVAWRAGLRMGDFLIEVNGQNVVKVGHRQVVNMIRQGGNTLMVKVVMVT
